Taken from: PubChem BioAssay AID743121 (NCATS, 2013)
Screen: 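Partners whose loss is lethal together with topoisomerase I blockade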 (primary screen). Cells: MDA-MB-231 cells, a human breast cancer line. Reagents: single siRNA against human genes, 20 nM siRNA (0.8 pmol per well). Duration: 120 h (drug added 48 h after transfection, read 72 h later). Conditions: camptothecin 20 nM (about EC30) for 72 h; vehicle 0.1% DMSO in parallel plates. Detection: 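Cell viability by ATP luminescence (CellTiter-Glo) as % of non-targeting siRNA wells, and the log2 ratio of viability without drug over viability with camptothecin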. Scale: log2 vehicle/camptothecin viability: higher = stronger sensitisation to camptothecin; viability with camptothecin and viability without drug: higher = more viable cells. Active means: 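Each gene scored by redundant siRNA activity (RSA) over its individual siRNA ratios; a gene is called active at p < 0.001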.
Shown is an unselected part of about 26,000 reagents. 167 of all reagents (0.63%) were called active. 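Calls are per gene from RSA p-values that are not deposited; an individual active-marked siRNA can sensitise only weakly.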 Entries without a mark were called inactive. The numbers tell different reagents against one gene apart.

no.	target gene	reagent	log2 vehicle/camptothecin viability	viability with camptothecin (% of control)	viability without drug (% of control)
1	CUEDC1 (GeneID 404093)	1	0.784	47.5	81.7
2	CUEDC1 (GeneID 404093)	2	-0.079	51.5	48.7
3	CUEDC1 (GeneID 404093)	3	-0.529	90.2	62.5
4	MLH3 (GeneID 27030)	1	-0.0355	98.2	95.8
5	MLH3 (GeneID 27030)	2	-0.0247	62.6	61.6
6	MLH3 (GeneID 27030)	3	-0.32	74.9	60
7	WFS1 (GeneID 7466)	1	-0.244	65.8	55.6
8	WFS1 (GeneID 7466)	2	-0.106	65.4	60.8
9	WFS1 (GeneID 7466)	3	-0.449	61.5	45.1
10	WFS1 (GeneID 7466)	4	0.543	37.3	54.4
11	IGF1R (GeneID 3480)	1	0.0852	65.8	69.8
12	IGF1R (GeneID 3480)	2	0.193	43.8	50.1
13	IGF1R (GeneID 3480)	3	-0.175	89.9	79.6
14	CDK20 (GeneID 23552)	1	-0.316	101	81.1
15	CDK20 (GeneID 23552)	2	0.11	41.5	44.8
16	CDK20 (GeneID 23552)	3	-0.497	93.6	66.3
17	CDK20 (GeneID 23552)	4	0.046	50.1	51.7
18	CD59 (GeneID 966)	1	-0.214	69.2	59.7
19	CD59 (GeneID 966)	2	-0.0414	105	102
20	CD59 (GeneID 966)	3	-0.146	61.4	55.5
21	CD59 (GeneID 966)	4	-0.197	57.3	49.9
22	SLC7A2 (GeneID 6542)	1	-0.0591	79.7	76.5
23	SLC7A2 (GeneID 6542)	2	-0.126	85.8	78.6
24	SLC7A2 (GeneID 6542)	3	0.428	28.2	38
25	SLC7A2 (GeneID 6542)	4	-0.417	61.1	45.8
26	KCNV1 (GeneID 27012)	1	0.207	80.3	92.6
27	KCNV1 (GeneID 27012)	2	0.11	95.2	103
28	KCNV1 (GeneID 27012)	3	-0.719	38.4	23.3
29	KCNV1 (GeneID 27012)	4	0.147	94.1	104

No new results follow: entries from further up.
no.	target gene	reagent	log2 vehicle/camptothecin viability	viability with camptothecin (% of control)	viability without drug (% of control)
23	SLC7A2 (GeneID 6542)	2	-0.126	85.8	78.6
24	SLC7A2 (GeneID 6542)	3	0.428	28.2	38
